The list shows a part of the results. Shown are side measurements of this screen, not its main read-out; they come without a call. The list favours compounds with an active or inconclusive main result. The note in brackets gives the kind of curve behind each potency; many fits are weak.

The nature of this test: qHTS Assay to Find Inhibitors of Chronic Active B-Cell Receptor Signaling. Conditions: ABC-DLBCL IkBa-CBG/CBR reporter, luminescence ratio (green luciferase fused to IkBa over red control in TMD8 lymphoma cells), 4 h. In outline: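 Doxycycline induced both beetle luciferases in TMD8 lymphoma cells; IKK-driven degradation limits the IkappaBalpha-fused green signal, while red luminescence normalises for cell number and nonspecific effects. Compounds tested up to 46 uM, 4 hrs.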

The mark [1] stands for this setting: measured here: CBR red luminescence, cell number.

As to `O=C1CN(C(=O)/C=C/c2ccccc2F)c2ccccc2N1`, the AC50 (usually the concentration at which the activity in the assay is half-maximal) under setting [1] is 31.6 µM [falling, single point].
On the same count and under the same terms, the value for `Cc1ccccc1N1C(=O)[C@@H]2Cc3ccccc3CN2C1=O` was 0.164 µM [falling, full curve, poor fit]; that for `CC(/C=N/NC(=O)c1cc(-c2ccc3ccccc3c2)n[nH]1)=C\c1ccco1` was 2.59 µM [rising, full curve, poor fit]; that for `Cc1nonc1C1CCCN1Cc1cn[nH]c1-c1ccc(-c2ccccc2)cc1` (configuration not stated) was 35.5 µM [rising, single point].
On the same count and under the same terms, the value for `COc1ccc(OC)c(N(CC(=O)NC2CC2)S(=O)(=O)c2ccc(C)cc2)c1` was 25.1 µM [falling, single point].
With `COc1ccc(/C=N/NC(=O)c2ccccc2[N+](=O)[O-])cc1CN1CCc2cc(OC)c(OC)cc2C1C` (configuration not stated), the AC50 under setting [1] was 10 µM [falling, partial curve, poor fit].
With `COc1cc(OC)c(-c2nn3c(-c4cccnc4)nnc3s2)cc1OC`, the AC50 under setting [1] was 3.16 µM [rising, full curve, poor fit].
In the case of `CCOc1ccccc1C(=O)Nc1cc(C)ccc1NC(=O)c1ccco1`, the AC50 under setting [1] was 35.5 µM [falling, partial curve, poor fit].
Same read-out and setting: the value for `CCN(CC)S(=O)(=O)c1cccc(NC(=O)COC(=O)CNC(=O)c2cccc(F)c2)c1` was 35.5 µM [rising, single point]; that for `CCOc1cc(N2CCOCC2)c(OCC)cc1NC(=O)CN1C(=O)NC2(CCCCCCC2)C1=O` was 4.47 µM [rising, full curve].
On the same count and under the same terms, next, `CCn1cc(C2=NC(CCSC)CO2)c2ccccc21` (configuration not stated): 2.51 µM [rising, full curve].
With `CC(=C/c1ccco1)/C=N/N1CCN(c2ccccc2)CC1`, under setting [1], the AC50 is 2.24 µM [rising, partial curve, poor fit].
Consider `C=CCNC(=S)NNC(=O)c1ccccc1`, for which the AC50 under setting [1] was 0.00411 µM [falling, full curve, poor fit].
Same read-out and setting: the value for `CCCn1nc(NC(=O)c2cccs2)c2cc3cccc(C)c3nc21` was 22.4 µM [falling, single point]; that for `CC1(C)Cc2cccc(C(=O)NCc3ccco3)c2O1` was 10 µM [falling, partial curve, poor fit]; that for `Cc1ccccc1OCC(O)Cn1c(NCc2ccco2)nc2c1c(=O)[nH]c(=O)n2C` (configuration not stated) was 0.103 µM [rising, partial curve, poor fit].
Consider `Nc1ccc(-c2nc3c(ccc4ccccc43)[nH]2)cc1`, for which the AC50 under setting [1] was 10 µM [falling, partial curve].
For the compound `CC(C)C(NC(=O)c1ccccc1)C(=O)OCC(=O)N1CCCC1` (configuration not stated), the AC50 under setting [1] is 29.1 µM [rising, partial curve, poor fit].
The same measure, in the same setting: next, `COC(=O)c1ccc(CSc2nc3ccccc3c(=O)n2-c2ccccc2)o1`: 23.1 µM [rising, partial curve, poor fit]; `O=C1/C(=C\c2ccc(Br)o2)SC(=Nc2ccccc2)N1c1ccccc1`: 12.6 µM [rising, partial curve, poor fit]; `c1ccc2c(c1)nc(N1CCN(C3CCCCC3)CC1)c1nnnn12`: 0.517 µM [falling, full curve, poor fit].
Same read-out and setting: the value for `CCOc1ccc(NC(=O)C(C)O)c(NS(=O)(=O)c2ccc(CCNC(C)=O)cc2)c1` (configuration not stated) was 29.1 µM [rising, single point]; that for `Cc1ccc(-n2nc(C)c(/C=N/n3c(C)n[nH]c3=S)c2Cl)cc1` was 11.2 µM [rising, partial curve].
For the compound `CN(C)C(CNC(=O)c1ccc(Br)cc1)c1ccco1` (configuration not stated), under setting [1], the AC50 is 35.5 µM [rising, single point].
Same read-out and setting: next, `Cc1ccc2[nH]cc(C(=O)CCl)c2c1`: 20.6 µM [falling, partial curve]; `CCOC(=O)C(Sc1n[nH]c(N)n1)c1ccccc1` (configuration not stated): 23.1 µM [rising, single point].
For `CSCC[C@H](NC(=O)CCn1nnc2ccccc2c1=O)C(=O)O`, under setting [1], the AC50 is 22.4 µM [falling, single point].
Take `O=C(NC(=S)N1CCN(C/C=C/c2ccccc2)CC1)c1ccc(F)cc1`: the AC50 (measured here: IkBa-CBG green luminescence) is 12.6 µM [falling, partial curve, poor fit].
As to `Cc1c(Cl)sn(-c2ccc(Cl)cc2)c1=O`, the concentration at half-maximal activity (AC50) under setting [1] is 35.5 µM [falling, single point].
Same read-out and setting: the value for `O=C1OC(c2ccccc2)=N/C1=C\N1CCCCC1` was 15.8 µM [rising, partial curve]; that for `CS(=O)(=O)c1ccccc1-c1nc(-c2ccc([N+](=O)[O-])cc2)no1` was 11.2 µM [rising, partial curve]; that for `COc1ccc(C(=O)NNC(=O)CCn2nnc(-c3ccc(Cl)cc3)n2)cc1OC` was 20 µM [falling, single point].
Regarding `CN(C)CCC(=O)c1ccc2c(c1)OCO2`, the AC50 under setting [1] is 14.1 µM [falling, partial curve].
Take `COc1ccc(NC(=O)c2cc(-c3ccc4c(c3)OCO4)on2)cc1`: under setting [1], the AC50 was 0.501 µM [falling, full curve].
Still for that read-out and setting: next, `C=C(C)Cn1c(CCNC(=O)C(C)C)nc2ccccc21`: 0.82 µM [rising, full curve, poor fit]; `Cc1cc(C(=O)COC(=O)c2ccc(O)cc2)c(C)n1CC(F)(F)F`: 7.31 µM [falling, partial curve, poor fit]; `CCOC(=O)Cc1csc(NC(NC(=O)OCC)(C(F)(F)F)C(F)(F)F)n1`: 29.1 µM [falling, single point].
In the case of `NC(=O)C1CCN(C(=O)CNC(=O)c2ccc(Br)o2)CC1`, the AC50 under setting [1] was 0.651 µM [falling, partial curve, poor fit].
The same measure, in the same setting: the value for `COc1cc(/C=N/Nc2ccc(S(N)(=O)=O)cc2[N+](=O)[O-])cc(OC)c1O` was 22.4 µM [falling, single point]; that for `O=C(c1cc2c(s1)-c1ccccc1OC2)N1CCCC1` was 20.6 µM [falling, single point]; that for `CO/N=C/c1ccc(Oc2ccc(C)cc2)nc1` was 15.8 µM [rising, partial curve, poor fit].
Take `CCC1=NN(C(=O)c2ccccc2Br)C(O)(c2ccc(Br)cc2)C1` (configuration not stated): the AC50 under setting [1] was 14.1 µM [falling, partial curve, poor fit].

These data come from PubChem BioAssay AID493014 (National Center for Advancing Translational Sciences (NCATS), 2011).
